Experimental data from patent US6448442B1, “Contrast media” (Amersham Health AS, priority 1999, dated 2002).
Where two headings read alike, the source gives them in different places. For at least one compound, name, drawing or mass did not settle the structure.

What was measured:
[1] = Viscosity in aqueous solution at 20° C. (Example 82, Tables 1 and 2); format: physicochemical; conditions: for Viscosity at 400 mgI/ml (CALCULATED): calculated for 400 mgI/ml
Method: The viscosities in aqueous solution at 20° C. for some further compounds described above were determined and are listed in Table 2. […]

[2] = 350 mgI/ml, 20° C., data from literature; cited from earlier work

In the case of `O=C(NCC(O)CO)c1c(I)c(CO)c(I)c(N(CCO)C(=O)CO)c1I` (stereo not shown) [Example 25, 5-[N′-(2-Hydroxyethyl)-hydroxyacetamido]-3-hydroxymethyl-N-(2,3-dihydroxypropyl)-2,4,6-triiodobenzamide], the “Viscosity at 400 mgI/ml (CALCULATED)” value [1] is reported as 12.6 mPas, the “Viscosity 20° C.” value ([1]; concentration 419 mgI/ml) is reported as 15 mPas and the “Viscosity 20° C.” value ([1]; concentration 500 mgI/ml) is reported as 37 mPas.
In the case of `CC(O)C(=O)Nc1c(I)c(CO)c(I)c(N(CCO)C(=O)C(C)O)c1I` (stereo not shown) [Example 9, N,N′-Bis(2-hydroxypropionyl)-N-(2-hydroxyethyl)-3,5-diamino-2,4,6-triiodobenzylalcohol], the “Viscosity at 400 mgI/ml (CALCULATED)” value [1] is reported as 14.8 mPas, the “Viscosity 20° C.” value ([1]; concentration 407 mgI/ml) is reported as 16 mPas and the Viscosity ([1]; iodine concentration 384 mgI/mL) is reported as 18 mPas.
In the case of `CC(=O)N(CC(O)CO)c1c(I)c(C(=O)NCC(O)CO)c(I)c(C(=O)NCC(O)CO)c1I` (stereo not shown) [Iohexol], the Viscosity [2] is given as 20.4 mPas.
For `CC(O)C(=O)N(CCO)c1c(I)c(CO)c(I)c(N(CCO)C(=O)C(C)O)c1I` (stereo not shown) [Example 10, N,N′-Bis(2-hydroxypropionyl)-N,N′-bis(2-hydroxyethyl)-3,5-diamino-2,4,6-triiodobenzylalcohol], the “Viscosity at 400 mgI/ml (CALCULATED)” value [1] was 13.3 mPas, the “Viscosity 20° C.” value ([1]; concentration 381 mgI/ml) was 11 mPas and the Viscosity ([1]; iodine concentration 381 mgI/mL) was 11 mPas.
With `O=C(CO)Nc1c(I)c(CO)c(I)c(C(=O)NCC(O)CO)c1I` (stereo not shown) [Example 24, 5-(Hydroxyacetamido)-3-hydroxymethyl-N-(2,3-dihydroxypropyl)-2,4,6-triiodobenzamide] the “Viscosity at 400 mgI/ml (CALCULATED)” value [1] was 11.3 mPas, the “Viscosity 20° C.” value ([1]; concentration 430 mgI/ml) was 15 mPas and the Viscosity ([1]; iodine concentration 430 mgI/mL) was 15 mPas.
